Data source: PubChem BioAssay AID743454 (Peter MacCallum Cancer Centre, 2014)

- Aim: 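Knock-downs lowering viability or raising caspase 3/7 activity in vorinostat-treated resistant cells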 (primary screen)
- Cells: human HCT116-VR colon cancer cells, selected for vorinostat resistance
- Reagents: siRNA pool against human genes, 40 nM siRNA pool
- Timing: vorinostat for 24 h, read-out about 72 h after transfection
- Conditions: vorinostat at 2.5 µM final
- Read-out: 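Cell viability by CellTiter-Fluor and caspase 3/7 activity by luminescence, each scaled to mock wells per plate, duplicates averaged, then robust z-scored over all plates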
- Direction: viability robust z-score: higher = more viable cells than screen typical; caspase robust z-score: higher = more caspase 3/7 activity than screen typical
- Call rule: 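a knock-down is a hit when classed RV1 or RV2 for lowered viability, or CA1 or CA2 for caspase activation; those lethal without drug were dropped; hits were retested singly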
Here is an unselected part of about 18,000 reagents. 450 of all reagents (2.5%) count as active. 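Single biological run; no consistent viability z cut-off exists, so the class columns, not z-scores, define the calls.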

SIGLEC9 (GeneID 27180) showed viability hit class no change; caspase hit class no change; viability robust z-score -0.39; caspase robust z-score -0.22; inactive.
Depletion of CRP (GeneID 1401) came out at: viability hit class no change; caspase hit class no change; viability robust z-score 1.72; caspase robust z-score -0.22; inactive.
After knock-down of TMPRSS11B (GeneID 132724) the results were viability hit class no change; caspase hit class no change; viability robust z-score 0.24; caspase robust z-score 1.28; inactive.
After knock-down of LRRC8D (GeneID 55144), the screen gave viability hit class no change; caspase hit class no change; viability robust z-score -1.12; caspase robust z-score 1.6; inactive.
After knock-down of ZNF610 (GeneID 162963), the screen gave viability hit class no change; caspase hit class no change; viability robust z-score -0.6; caspase robust z-score 1.42; inactive.
NCAPD2 (GeneID 9918) scored viability hit class no change; caspase hit class no change; viability robust z-score 0.38; caspase robust z-score -0.39; inactive.
Against VPREB1 (GeneID 7441), the entry reads viability hit class no change; caspase hit class no change; viability robust z-score 0.84; caspase robust z-score -0.57; inactive.
Knock-down of CCL17 (GeneID 6361) resulted in: viability hit class no change; caspase hit class no change; viability robust z-score -3.92; caspase robust z-score -0.62; inactive.
With knock-down of CT47A6 (GeneID 728062), the screen gave viability hit class no change; caspase hit class no change; viability robust z-score 1.42; caspase robust z-score 0.59; inactive.
NSMCE4A (GeneID 54780) gave viability hit class no change; caspase hit class no change; viability robust z-score 0.04; caspase robust z-score 1.88; inactive.
With knock-down of OR4D2 (GeneID 124538), the record shows viability hit class no change; caspase hit class no change; viability robust z-score -1.13; caspase robust z-score -0.53; inactive.
SLC25A15 (GeneID 10166) showed viability hit class no change; caspase hit class no change; viability robust z-score -0.05; caspase robust z-score 5.06; inactive.
After knock-down of UBE2G2 (GeneID 7327), the record shows viability hit class no change; caspase hit class no change; viability robust z-score -1.24; caspase robust z-score -0.38; inactive.
MED14 (GeneID 9282) scored viability hit class no change; caspase hit class no change; viability robust z-score -1.19; caspase robust z-score 1.44; inactive.
GPR119 (GeneID 139760) scored viability hit class no change; caspase hit class no change; viability robust z-score -1.32; caspase robust z-score 0.03; inactive.
LSMEM1 (GeneID 286006) showed viability hit class no change; caspase hit class no change; viability robust z-score -0.46; caspase robust z-score -1.05; inactive.
Against SLFN13 (GeneID 146857), the entry reads viability hit class no change; caspase hit class no change; viability robust z-score -1.16; caspase robust z-score 2.79; inactive.
SURF2 (GeneID 6835) gave viability hit class no change; caspase hit class no change; viability robust z-score 0.63; caspase robust z-score -0.95; inactive.
SLC35B1 (GeneID 10237) gave viability hit class no change; caspase hit class no change; viability robust z-score -0.14; caspase robust z-score -0.29; inactive.
CREBZF (GeneID 58487) showed viability hit class no change; caspase hit class no change; viability robust z-score -0.22; caspase robust z-score 1.17; inactive.
Silencing of SLC35F4 (GeneID 341880) resulted in: viability hit class no change; caspase hit class no change; viability robust z-score -0.16; caspase robust z-score -0.66; inactive.
